The results in this text go back to publication PMC8927349.

Chains of the proteins cited; added tags and fusions are not shown. Lines headed by an entry give the natural chain unless they say otherwise; changes in a name come on top.
UniProt Q6J4K2: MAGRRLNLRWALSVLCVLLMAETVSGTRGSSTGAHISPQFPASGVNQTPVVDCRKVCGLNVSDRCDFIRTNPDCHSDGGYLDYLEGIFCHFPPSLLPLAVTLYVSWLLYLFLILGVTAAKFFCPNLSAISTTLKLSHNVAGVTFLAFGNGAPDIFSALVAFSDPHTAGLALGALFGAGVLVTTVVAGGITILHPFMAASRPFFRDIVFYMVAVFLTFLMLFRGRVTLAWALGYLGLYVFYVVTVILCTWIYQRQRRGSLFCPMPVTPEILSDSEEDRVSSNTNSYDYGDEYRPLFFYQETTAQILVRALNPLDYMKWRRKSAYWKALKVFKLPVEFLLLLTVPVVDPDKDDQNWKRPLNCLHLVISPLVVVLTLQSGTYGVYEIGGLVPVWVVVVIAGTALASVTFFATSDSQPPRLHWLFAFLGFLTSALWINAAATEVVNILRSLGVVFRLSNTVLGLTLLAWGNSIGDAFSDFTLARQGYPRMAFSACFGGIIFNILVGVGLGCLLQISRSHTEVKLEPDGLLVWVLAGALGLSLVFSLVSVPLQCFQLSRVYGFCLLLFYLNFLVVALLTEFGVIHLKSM

In the experiment the target is GST-NCLX recombinant protein (UniProt Q6J4K2). Nature of the experiment: pull-down; 1 µg GST-NCLX (or GST) on glutathione sepharose beads; Lon immunoprecipitated from transfected OEC-M1 lysate with Lon antibody and eluted with 0.1 M glycine pH 2.0 was added, mixed end on end for 4 h; washed thrice with lysis buffer; Western blot; both purified.

These are yes or no findings as the source states them, for the method shown. In cells and extracts the contact can be indirect. Binding calls can cover weak binding; strength is not graded here.

B1: mitochondrial Lon (protein, UniProt P36776 68-959)
chain: FWEASSRGGGAFSGGEDASEGGAEEGAGGAGGSAGAGEGPVITALTPMTIPDVFPHLPLIAITRNPVFPRFIKIIEVKNKKLVELLRRKVRLAQPYVGVFLKRDDSNESDVVESLDEIYHTGTFAQIHEMQDLGDKLRMIVMGHRRVHISRQLEVEPEEPEAENKHKPRRKSKRGKKEAEDELSARHPAELAMEPTPELPAEVLMVEVENVVHEDFQVTEEVKALTAEIVKTIRDIIALNPLYRESVLQMMQAGQRVVDNPIYLSDMGAALTGAESHELQDVLEETNIPKRLYKALSLLKKEFELSKLQQRLGREVEEKIKQTHRKYLLQEQLKIIKKELGLEKDDKDAIEEKFRERLKELVVPKHVMDVVDEELSKLGLLDNHSSEFNVTRNYLDWLTSIPWGKYSNENLDLARAQAVLEEDHYGMEDVKKRILEFIAVSQLRGSTQGKILCFYGPPGVGKTSIARSIARALNREYFRFSVGGMTDVAEIKGHRRTYVGAMPGKIIQCLKKTKTENPLILIDEVDKIGRGYQGDPSSALLELLDPEQNANFLDHYLDVPVDLSKVLFICTANVTDTIPEPLRDRMEMINVSGYVAQEKLAIAERYLVPQARALCGLDESKAKLSSDVLTLLIKQYCRESGVRNLQKQVEKVLRKSAYKIVSGEAESVEVTPENLQDFVGKPVFTVERMYDVTPPGVVMGLAWTAMGGSTLFVETSLRRPQDKDAKGDKDGSLEVTGQLGEVMKESARIAYTFARAFLMQHAPANDYLVTSHIHLHVPEGATPKDGPSAGCTIVTALLSLAMGRPVRQNLAMTGEVSLTGKILPVGGIKEKTIAAKRAGVTCIVLPAENKKDFYDLAAFITEGLEVHFVEHYREIFDIAFPDEQAEALAVER
Consider B1, for which the binding entry is recorded as “binds”.
